Results are given in words; binding and its absence hold for the method and conditions named. Binding seen in cells or lysates may run through a third protein.
Target: HA-Snail (UniProt O95863)
Experiment: co-IP; Myc-Ajuba, Flag-SP1 and HA-Snail expressed alone or in combination in 293T cells; co-IP with anti-HA or anti-Flag antibodies

The chains behind the UniProt entries cited, without tags or fusion partners.
UniProt O95863: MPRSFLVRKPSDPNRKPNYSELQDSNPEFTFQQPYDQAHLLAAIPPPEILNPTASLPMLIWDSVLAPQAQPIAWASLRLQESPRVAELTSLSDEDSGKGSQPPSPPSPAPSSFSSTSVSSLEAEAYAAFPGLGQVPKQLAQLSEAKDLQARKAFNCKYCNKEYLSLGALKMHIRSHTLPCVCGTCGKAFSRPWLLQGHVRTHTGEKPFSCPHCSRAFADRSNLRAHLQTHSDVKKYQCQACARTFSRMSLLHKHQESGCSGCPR
UniProt P08047: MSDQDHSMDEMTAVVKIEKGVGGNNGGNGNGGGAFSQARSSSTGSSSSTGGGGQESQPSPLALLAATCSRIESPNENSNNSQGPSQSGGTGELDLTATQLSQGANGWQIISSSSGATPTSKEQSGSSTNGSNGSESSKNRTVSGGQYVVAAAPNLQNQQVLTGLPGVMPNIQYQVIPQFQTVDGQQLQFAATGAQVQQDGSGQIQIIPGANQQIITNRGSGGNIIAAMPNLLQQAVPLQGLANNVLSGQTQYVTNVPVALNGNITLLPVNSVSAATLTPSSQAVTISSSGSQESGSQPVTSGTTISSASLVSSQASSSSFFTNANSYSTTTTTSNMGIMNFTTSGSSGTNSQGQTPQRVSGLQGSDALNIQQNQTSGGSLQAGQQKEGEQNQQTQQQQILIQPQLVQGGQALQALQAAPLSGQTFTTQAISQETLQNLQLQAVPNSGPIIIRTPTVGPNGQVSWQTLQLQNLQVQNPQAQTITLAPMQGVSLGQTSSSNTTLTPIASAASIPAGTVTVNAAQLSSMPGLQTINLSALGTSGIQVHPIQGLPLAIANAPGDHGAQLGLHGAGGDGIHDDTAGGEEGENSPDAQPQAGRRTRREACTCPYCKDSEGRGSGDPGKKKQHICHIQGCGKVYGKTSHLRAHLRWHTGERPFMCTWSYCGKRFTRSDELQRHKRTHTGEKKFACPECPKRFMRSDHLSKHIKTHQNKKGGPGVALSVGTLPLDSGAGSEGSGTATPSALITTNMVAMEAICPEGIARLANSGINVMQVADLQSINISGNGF

binding: no binding
Substance: Flag-SP1 (from UniProt P08047 1-785)
